Assay results: US20080274978A1 (POSTECH FOUNDATION, published 2008)
No constants are given. Whether binding was seen depends on the method and setting. Some entries that bind do so weakly or less than the wild type. Tags and fused reporters may be left off the sequences shown.

T1: Formyl peptide receptor like 1 (FPRL1) (human, UniProt P25090 1-351)
T1 sequence (looked up): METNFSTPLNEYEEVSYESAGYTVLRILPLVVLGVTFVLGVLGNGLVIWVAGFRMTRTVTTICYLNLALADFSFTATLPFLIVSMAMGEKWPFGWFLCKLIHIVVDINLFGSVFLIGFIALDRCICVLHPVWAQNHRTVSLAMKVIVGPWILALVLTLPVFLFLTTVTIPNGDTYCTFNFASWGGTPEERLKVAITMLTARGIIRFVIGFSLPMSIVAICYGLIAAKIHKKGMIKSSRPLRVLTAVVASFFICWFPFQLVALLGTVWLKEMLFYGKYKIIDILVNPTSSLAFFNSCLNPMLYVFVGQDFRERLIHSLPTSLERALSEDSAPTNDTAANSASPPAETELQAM


target: T1, Formyl peptide receptor like 1 (FPRL1); test: displacement of 125I-WKYMVm from FPRL1-expressing RBL-2H3 cells

Binder	binding
WRWWWW (C-terminal amide (CONH2)) [Trp-Arg-Trp-Trp-Trp-Trp-CONH2 (WRWWWW, WRW^4)]	binds
RHWWWW (C-terminal amide (CONH2)) [Arg-His-Trp-Trp-Trp-Trp-CONH2 (RHWWWW, RHW^4)]	binds
RRWWWW (C-terminal amide (CONH2)) [Arg-Arg-Trp-Trp-Trp-Trp-CONH2 (RRWWWW, RRW^4)]	binds
DRWWWW (C-terminal amide (CONH2)) [Asp-Arg-Trp-Trp-Trp-Trp-CONH2 (DRWWWW, DRW^4)]	binds
